Earlier results on one compound are cited in patent US4470980A, “Method of increasing oral absorption of β-lactam antibiotics” (priority 1981, dated 1984).

The conditions of this series: oral; prior art; cited from earlier work.

With `CC1=C(C(=O)O)N2C(=O)[C@@H](NC(=O)[C@H](N)c3ccccc3)[C@H]2SC1` [cephalexin], the absorbed entry is given as “greater than 80%”.
